Library screen at single concentrations

Data taken from ChEMBL document CHEMBL3988442, “University of Dundee, Small-Polar-MMV Screening Library” (2021).

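Assay of Toxoplasma gondii numbers, read through their beta-galactosidase reporter with a colour substrate. Tested at 50 µM. The record gives no direction; the compounds picked for IC50 retests had high values, so higher reads as fewer parasites. Of about 18,000 compounds tested this way, about 170 (0.94%) reached 50% or more in at least one test.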

Results are given as percent effect.
How 0% and 100% were set is not recorded. Most values in the screen are low, and negative values occur.
Compounds were drawn at random from those tested, without regard to their results.

compound,Percent Effect
CCCn1nc(C(=O)NCc2csc(Br)c2)ccc1=O,6.171
CC(C)N(CC(F)F)C(=O)CNC(=O)c1cccs1,5.676
NC(=O)c1ccccc1C(F)(F)F,-5.381
CCOCC1CCN(C(=O)NCCC2=CCOCC2)C1 (configuration not stated),12.6
CN(CCCO)C(CCO)c1ccccc1 (configuration not stated),-18.22
Cc1cc(N)n(CC(=O)NCc2cc(C3CC3)on2)n1,28.2
CC(N)c1nnc(-c2cccc(F)c2)s1 (configuration not stated),0.6112
CNc1nnc(-c2ccccc2)s1,-6.948
COc1ccc(CNC(=O)C(C)(C)C)c(OC)c1OC,1.39
CC(=O)NCCNC(=O)c1cc(-c2ccco2)on1,-22.58
Cc1ccc(C)c(S(=O)(=O)NC2CCS(=O)(=O)C2)c1 (configuration not stated),-9.126
N[C@@H]1C[C@H]1c1ccc2c(c1)OCCO2,-18.91
Cc1nn(C)c(N(C)C)c1CNCc1nncn1C,-4.718
CC1CCCN(C(=O)CCN2CCOC2=O)C1 (configuration not stated),3.177
COc1cccc(OCCNC(N)=O)c1,4.862
CCC(CC)C(=O)NC1CCN(CC)CC1,-5.26
COCCn1ccc(N)n1,1.043
CC(C)(C(=O)N1CCC(N)CC1)c1cccc(F)c1,80.98
CSCc1noc(CN2CCN(C3CCNC3)CC2)n1 (configuration not stated),12.41
C[C@H](N)c1nc2ccccc2[nH]1,-10.14
COCC(C)(NC(=O)CCc1ccccc1Cl)C(N)=O (configuration not stated),-5.481
Cc1cccn2cc(CS(=O)(=O)CCCC#N)nc12,-6.226
CCC(CO)NS(=O)(=O)c1ccc(C)cc1 (configuration not stated),-15.84
CC(C)(C)CC(=O)N1CCCCC1CN (configuration not stated),0.4599
O=C(Nc1ncccc1O)c1cccnc1C(F)(F)F,-4.975
COc1ncccc1CNS(=O)(=O)c1cccc(Cl)c1,-7.053
CNC(=O)NCC(=O)Nc1cc(Br)c(F)cc1C,6.135
CC(C#N)CNC(=O)OC(C)(C)C (configuration not stated),-7.053
COCCN1CCCC2(CCN(C(=O)C(C)C)C2)C1=O (configuration not stated),3.49
CC(=O)N1CCC(NC(=O)NCc2sccc2C)CC1,-1.974
CCC(N)COCC1CC1 (configuration not stated),-3.086
Nc1cnn(Cc2ccccn2)c1,5.502
Cc1nnc(CN2CCN(CC(O)C(C)(C)C)CC2)o1 (configuration not stated),-15.33
CNC(=O)CSc1nc2cc(F)c(F)cc2[nH]1,-2.75
CCN(CC(C)C#N)Cn1ncc2ccccc2c1=O (configuration not stated),5.447
CCNC(=O)Cc1nnc(-c2cccc(F)c2)o1,-12.79
CC(=O)NC(C)C(=O)Nc1ccccn1 (configuration not stated),23.97
Cn1cccc1C1CCCCN1 (configuration not stated),-0.2451
N[C@H]1CC[C@H](Nc2ccccn2)CC1,14.63
CC1CN(C(=O)N2CCOCC2)c2ccc(F)cc2O1 (configuration not stated),-13.76
C1CC(C2COCCN2)C1 (configuration not stated),-24.1
CC(C)(O)CN1CCN(C(=O)CN2CSCC2=O)CC1,-1.079
O=C1NCCCc2[nH]c(Cc3ccncc3)nc21,3.928
CC(C)COCCN1CCC(C#N)CC1,7.946
N#Cc1ccc(CC(N)=O)cc1,24.71
Cn1ccnc1C1NCC1(C)C (configuration not stated),-7.804
COc1ccc(OCCCC(=O)NCCN(C)C)cc1,-7.99
CCN1CC(C(=O)N2CCOC3(CCCC3)C2)CC1=O (configuration not stated),-5.046
CC(=O)c1c(C)cc(C)[nH]c1=O,5.124
Cc1ocnc1CNC(=O)CC1CSCCS1 (configuration not stated),-13.68
CC(=O)Nc1ccc(CCN)cc1,17.39
CCC(NC(=O)Cc1cccc(O)c1)c1ccncc1 (configuration not stated),1.391
NS(=O)(=O)Cc1ccc(CNC(=O)c2ccoc2)cc1,1.43
Cn1nccc1C(=O)Nc1sc2c(c1C#N)CCC2,-1.405
COCCNC(=O)c1ccc(CN2CCCCC2)cc1,4.07
CC(c1cccs1)n1nccc1N (configuration not stated),47.82
Cc1cccc(CS(=O)(=O)NCC2(CO)CC2)c1,-14.77
CCC(C)(C)NCC(=O)Nc1ccc2c(c1)OCCO2,11.25

4 of the entries, repeated:

* Nc1cnn(Cc2ccccn2)c1 | 5.502%
* CNc1nnc(-c2ccccc2)s1 | -6.948%
* COCCNC(=O)c1ccc(CN2CCCCC2)cc1 | 4.07%
* COc1ccc(CNC(=O)C(C)(C)C)c(OC)c1OC | 1.39%